PubChem BioAssay AID652259 – Drosophila RNAi Screening Center | 2013

- Screen: 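Identify new Wingless signalling regulators in fly cells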 (primary screen)
- System: Drosophila clone 8 imaginal disc epithelial cells
- Reagents: long dsRNA against Drosophila genes
- Conditions: pathway stimulated by co-transfected Wingless expression plasmid
- Measurement: 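Firefly luciferase from a tcf-site Wingless reporter, measured alongside co-transfected Renilla luciferase that tracks transfection; pathway stimulated by a Wingless plasmid; the firefly-to-Renilla ratio is not deposited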
- Scale: firefly reporter light: higher = more Wg reporter light, before normalisation; Renilla control light: higher = more transfected or surviving cells
- Active means: 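Strong candidates differ from their plate mean by at least two out of four per-plate statistical tests; weak candidates meet just one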
- Meaning of the calls: active = candidate regulator (raises or lowers reporter); inactive = not a candidate
The deposit covers about 22,000 reagents; shown is a random part of those that have a named target and a result. In the full data, 233 (1.1%) are marked active. 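Light values are raw, unnormalised plate reads; the ratio scores behind the reporter calls were not deposited.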 A number with no mark means an inactive call. Reagents against one gene are numbered here. Not given: the amount of reagent, the time to read-out, the dose of the treatment.

exex showed firefly reporter light, replicate 1 = 1280; firefly reporter light, replicate 2 = 6498; Renilla control light, replicate 1 = 1384; Renilla control light, replicate 2 = 2069.
Depletion of Mtp gave: firefly reporter light, replicate 1 = 8643; Renilla control light, replicate 1 = 2919.
Tssk scored firefly reporter light, replicate 1 = 11532; Renilla control light, replicate 1 = 2835.
Against eIF4E5, the entry reads firefly reporter light, replicate 1 = 596; firefly reporter light, replicate 2 = 5113; Renilla control light, replicate 1 = 784; Renilla control light, replicate 2 = 3040.
After knock-down of Cpr100A, the screen gave firefly reporter light, replicate 1 = 9329; Renilla control light, replicate 1 = 2816.
For Mrtf #1 the deposit lists firefly reporter light, replicate 1 = 1986; Renilla control light, replicate 1 = 823.
After knock-down of Mrtf #2, the screen gave firefly reporter light, replicate 1 = 5328; Renilla control light, replicate 1 = 1271.
After knock-down of Mrtf #3, the record shows firefly reporter light, replicate 1 = 7200; Renilla control light, replicate 1 = 2164.
lok scored firefly reporter light, replicate 1 = 7264; Renilla control light, replicate 1 = 2928.
After knock-down of CG11722, the screen gave firefly reporter light, replicate 1 = 14581; Renilla control light, replicate 1 = 2864.
Obp50a gave firefly reporter light, replicate 1 = 7.62e5; firefly reporter light, replicate 2 = 7.96e5; Renilla control light, replicate 1 = 3.43e5; Renilla control light, replicate 2 = 3.60e5.
Silencing of CG33136 resulted in: reporter change call, replicate 1 = Wg reporter activity lowered (active); firefly reporter light, replicate 1 = 4897; Renilla control light, replicate 1 = 9809.
For rdo, the values are firefly reporter light, replicate 1 = 11319; Renilla control light, replicate 1 = 2227.

Sorted by “Renilla control light, replicate 1” (descending): some entries from above.
Mrtf #3 | firefly reporter light, replicate 1: 7200; Renilla control light, replicate 1: 2164
Mrtf #2 | firefly reporter light, replicate 1: 5328; Renilla control light, replicate 1: 1271
Mrtf #1 | firefly reporter light, replicate 1: 1986; Renilla control light, replicate 1: 823

The list goes on.
For ppk13, the entry reads firefly reporter light, replicate 1 = 2663; firefly reporter light, replicate 2 = 5811; Renilla control light, replicate 1 = 688; Renilla control light, replicate 2 = 2301.
RpLP2 showed firefly reporter light, replicate 1 = 5012; Renilla control light, replicate 1 = 1078.
Depletion of sip2 gave: firefly reporter light, replicate 1 = 2908; firefly reporter light, replicate 2 = 7472; Renilla control light, replicate 1 = 1035; Renilla control light, replicate 2 = 1719.
Silencing of ABCB7 came out at: firefly reporter light, replicate 1 = 4497; Renilla control light, replicate 1 = 2485.
Cdk12 scored firefly reporter light, replicate 1 = 11515; Renilla control light, replicate 1 = 2742.
U2A gave firefly reporter light, replicate 1 = 2583; firefly reporter light, replicate 2 = 6336; Renilla control light, replicate 1 = 864; Renilla control light, replicate 2 = 2448.
Silencing of CG2127 came out at: firefly reporter light, replicate 1 = 1906; firefly reporter light, replicate 2 = 6696; Renilla control light, replicate 1 = 612; Renilla control light, replicate 2 = 2449.
After knock-down of CG15395, the screen gave firefly reporter light, replicate 1 = 2427; firefly reporter light, replicate 2 = 6199; Renilla control light, replicate 1 = 725; Renilla control light, replicate 2 = 1728.
CG13031 showed firefly reporter light, replicate 1 = 6692; Renilla control light, replicate 1 = 2939.
For CG14762 #1 the deposit lists firefly reporter light, replicate 1 = 19154; Renilla control light, replicate 1 = 10488.
CG14762 #2 showed firefly reporter light, replicate 1 = 3274; firefly reporter light, replicate 2 = 6117; Renilla control light, replicate 1 = 982; Renilla control light, replicate 2 = 2289.
Against CG31021 the deposit lists firefly reporter light, replicate 1 = 3.71e5; firefly reporter light, replicate 2 = 3.65e5; Renilla control light, replicate 1 = 1.49e5; Renilla control light, replicate 2 = 1.53e5.
